The list is a part of this screen's results and no random one: its compounds were picked by chemical class. Not every dose and run of a compound is shown. T/C gives the treated animals as a percentage of the vehicle group. Where survival is the endpoint, the PubChem record calls one and a half times the control and up active, and a quarter to a half above the control has no call in these data; cut-offs in other NCI protocols can differ. Schedules are NCI's codes, read here as Q, the interval in days (D) or hours (H), X, the number of doses. Some entries show no survivor count and are marked so; the dose need not have been tolerated. Some entries hold several experiments; the values are given in rising order.
Test system: P388 leukemia ip, CD2F1 mice, survival T/C
Assay: NCI In Vivo Anticancer Drug Screen. Data for tumor model P388 Leukemia (intraperitoneal) in CD2F1 (CDF1) mice
Settings: T/C endpoint: median survival time, higher T/C = longer survival
[1] = dose: 0.31 mg/kg/injection, schedule: Q01DX009 (ip), vehicle: Klucel (hydroxypropylcellulose) (HPC)
[2] = dose: 0.63 mg/kg/injection, schedule: Q01DX009 (ip), vehicle: Klucel (hydroxypropylcellulose) (HPC)
[3] = dose: 1.25 mg/kg/injection, schedule: Q01DX009 (ip), vehicle: Klucel (hydroxypropylcellulose) (HPC)

With `CC1=C[C@H]2O[C@@H]3[C@H](O)[C@@H](O)[C@](C)(C2(COC(=O)CCl)CC1)[C@@]31CO1` (stereo not given in full) the T/C (dose: 0.5 mg/kg/injection, schedule: Q01DX009 (ip), vehicle: saline + alcohol) was 137 % of control [survivor count not shown], the T/C (dose: 0.5 mg/kg/injection, schedule: Q01DX009 (ip), vehicle: saline with Tween-80) was 145 [survivor count not shown] and 155 % of control [survivor count not shown] and the T/C (dose: 1.0 mg/kg/injection, schedule: Q01DX009 (ip), vehicle: saline + alcohol) was 151 % of control [survivor count not shown]. The T/C (dose: 1.0 mg/kg/injection, schedule: Q01DX009 (ip), vehicle: saline with Tween-80) was 136 [survivor count not shown] and 155 % of control [survivor count not shown], the T/C (dose: 2.0 mg/kg/injection, schedule: Q01DX009 (ip), vehicle: saline + alcohol) was 146 % of control [survivor count not shown] and the T/C (dose: 2.0 mg/kg/injection, schedule: Q01DX009 (ip), vehicle: saline with Tween-80) was 164 % of control [survivor count not shown]. The T/C (dose: 4.0 mg/kg/injection, schedule: Q01DX009 (ip), vehicle: saline + alcohol) was 164 % of control [survivor count not shown], the T/C (dose: 4.0 mg/kg/injection, schedule: Q01DX009 (ip), vehicle: saline with Tween-80) was 153 % of control [survivor count not shown] and the T/C (dose: 8.0 mg/kg/injection, schedule: Q01DX009 (ip), vehicle: saline + alcohol) was 198 % of control [survivor count not shown].

`CC1=CC2OC3CC(OC(=O)/C=C/C=C/C(OCCC4=CC(=O)OC4)C(C)O)C(C)(C2(CO)CC1)C31CO1` (stereo not given) was tested, and the T/C (dose: 1.0 mg/kg/injection, schedule: Q01DX009 (ip), vehicle: distilled water + Tween-80) was 107 % of control [survivor count not shown], the T/C (dose: 2.0 mg/kg/injection, schedule: Q01DX009 (ip), vehicle: distilled water + Tween-80) was 104 % of control [survivor count not shown] and the T/C (dose: 2.0 mg/kg/injection, schedule: Q01DX009 (ip), vehicle: water) was 104 % of control [survivor count not shown]. For the same compound, the T/C (dose: 4.0 mg/kg/injection, schedule: Q01DX009 (ip), vehicle: distilled water + Tween-80) was 104 % of control [survivor count not shown], the T/C (dose: 4.0 mg/kg/injection, schedule: Q01DX009 (ip), vehicle: water) was 105 % of control [survivor count not shown] and the T/C (dose: 8.0 mg/kg/injection, schedule: Q01DX009 (ip), vehicle: distilled water + Tween-80) was 122 % of control [survivor count not shown]. The T/C (dose: 8.0 mg/kg/injection, schedule: Q01DX009 (ip), vehicle: water) was 107 % of control [survivor count not shown], the T/C (dose: 16.0 mg/kg/injection, schedule: Q01DX009 (ip), vehicle: distilled water + Tween-80) was 116 % of control [survivor count not shown] and the T/C (dose: 16.0 mg/kg/injection, schedule: Q01DX009 (ip), vehicle: water) was 125 % of control [survivor count not shown]. The T/C (dose: 32.0 mg/kg/injection, schedule: Q01DX009 (ip), vehicle: distilled water + Tween-80) was 120 % of control [survivor count not shown], the T/C (dose: 32.0 mg/kg/injection, schedule: Q01DX009 (ip), vehicle: water) was 100 % of control [survivor count not shown] and the T/C (dose: 64.0 mg/kg/injection, schedule: Q01DX009 (ip), vehicle: water) was 163 % of control [survivor count not shown].

For `C/C1=C/C(=O)OCC23CCC4(C)OC4C2OC2CC(OC(=O)/C=C\C=C/C4OC(OC4C)C1O)C3(C)C21CO1` (stereo not given), the T/C (dose: 0.04 mg/kg/injection, schedule: Q01DX009 (ip), vehicle: saline + alcohol) was 97 % of control [survivor count not shown], the T/C (dose: 0.16 mg/kg/injection, schedule: Q01DX009 (ip), vehicle: saline + alcohol) was 100 % of control [survivor count not shown] and the T/C (dose: 0.32 mg/kg/injection, schedule: Q01DX009 (ip), vehicle: saline + alcohol) was 101 % of control [survivor count not shown]. The T/C (dose: 0.63 mg/kg/injection, schedule: Q01DX009 (ip), vehicle: saline + alcohol) was 104 % of control [survivor count not shown], the T/C (dose: 1.5 mg/kg/injection, schedule: Q01DX009 (ip), vehicle: saline + alcohol) was 102 % of control [survivor count not shown] and the T/C (dose: 3.0 mg/kg/injection, schedule: Q01DX009 (ip), vehicle: saline + alcohol) was 100 % of control [survivor count not shown]. For the same compound, the T/C (dose: 6.0 mg/kg/injection, schedule: Q01DX009 (ip), vehicle: saline + alcohol) was 101 % of control [survivor count not shown] and the T/C (dose: 12.0 mg/kg/injection, schedule: Q01DX009 (ip), vehicle: saline + alcohol) was 101 % of control [survivor count not shown].

For `CC1=C[C@H]2O[C@@H]3C[C@H]4OC(=O)/C=C\C=C\[C@H]([C@@H](C)O)OC[C@H](O)[C@@]5(C)O[C@@H]5C(=O)OC[C@@]2(C[C@H]1O)[C@]4(C)C31CO1` (stereo not given in full), the T/C [1] was 118 % of control [survivor count not shown], the T/C [2] was 117 % of control [survivor count not shown] and the T/C [3] was 137 % of control [survivor count not shown]. The T/C (dose: 2.5 mg/kg/injection, schedule: Q01DX009 (ip), vehicle: Klucel (hydroxypropylcellulose) (HPC)) was 102 % of control [survivor count not shown] and the T/C (dose: 2.5 mg/kg/injection, schedule: Q01DX009 (ip), vehicle: saline + alcohol) was 185 % of control [survivor count not shown].

In the case of `CC1=CC2OC3CC4OC(=O)/C=C/C=C/C(C(C)O)OCC(O)C(C)CC(=O)OCC2(CC1O)C4(C)C31CO1` (stereo not given), the T/C (dose: 0.13 mg/kg/injection, schedule: Q01DX009 (ip), vehicle: Klucel (hydroxypropylcellulose) (HPC)) is reported as 133 % of control [survivor count not shown], the T/C (dose: 0.16 mg/kg/injection, schedule: Q01DX009 (ip), vehicle: Klucel (hydroxypropylcellulose) (HPC)) is reported as 136 % of control [survivor count not shown] and the T/C (dose: 0.25 mg/kg/injection, schedule: Q01DX009 (ip), vehicle: Klucel (hydroxypropylcellulose) (HPC)) is reported as 155 % of control [survivor count not shown]. The T/C [1] was 133 % of control [survivor count not shown], the T/C (dose: 0.5 mg/kg/injection, schedule: Q01DX009 (ip), vehicle: Klucel (hydroxypropylcellulose) (HPC)) was 150 % of control [survivor count not shown] and the T/C [2] was 154 % of control [survivor count not shown]. For the same compound, the T/C (dose: 1.0 mg/kg/injection, schedule: Q01DX009 (ip), vehicle: Klucel (hydroxypropylcellulose) (HPC)) was 180 % of control [survivor count not shown], the T/C [3] was 163 % of control [survivor count not shown] and the T/C (dose: 7.5 micrograms/kg/injection, schedule: Q01DX009 (ip), vehicle: saline + alcohol) was 105 % of control [survivor count not shown]. The T/C (dose: 15.0 micrograms/kg/injection, schedule: Q01DX009 (ip), vehicle: saline + alcohol) was 124 % of control [survivor count not shown], the T/C (dose: 31.0 micrograms/kg/injection, schedule: Q01DX009 (ip), vehicle: saline + alcohol) was 130 % of control [survivor count not shown] and the T/C (dose: 62.0 micrograms/kg/injection, schedule: Q01DX009 (ip), vehicle: saline + alcohol) was 140 % of control [survivor count not shown]. The T/C (dose: 125.0 micrograms/kg/injection, schedule: Q01DX009 (ip), vehicle: saline + alcohol) was 166 % of control [survivor count not shown], the T/C (dose: 250.0 micrograms/kg/injection, schedule: Q01DX009 (ip), vehicle: saline + alcohol) was 158 % of control [survivor count not shown] and the T/C (dose: 500.0 micrograms/kg/injection, schedule: Q01DX009 (ip), vehicle: saline + alcohol) was 177 % of control [survivor count not shown]. The T/C (dose: 1000.0 micrograms/kg/injection, schedule: Q01DX009 (ip), vehicle: saline + alcohol) was 278 % of control [survivor count not shown].

For `CC1=CC2OC3CC4OC(=O)/C=C/C=C/C(=O)OCC/C(CO)=C/C(=O)OCC2(CC1)C4(C)C31CO1` (stereo not given), the T/C (dose: 0.31 mg/kg/injection, schedule: Q04DX002 (ip), vehicle: distilled water + Tween-80 + alcohol) was 116 % of control [survivor count not shown], the T/C (dose: 0.62 mg/kg/injection, schedule: Q04DX002 (ip), vehicle: distilled water + Tween-80 + alcohol) was 123 % of control [survivor count not shown] and the T/C (dose: 1.25 mg/kg/injection, schedule: Q04DX002 (ip), vehicle: distilled water + Tween-80 + alcohol) was 125 [survivor count not shown] and 129 % of control [survivor count not shown]. The T/C (dose: 2.5 mg/kg/injection, schedule: Q04DX002 (ip), vehicle: distilled water + Tween-80 + alcohol) was 122 [survivor count not shown] and 129 % of control [survivor count not shown] and the T/C (dose: 5.0 mg/kg/injection, schedule: Q04DX002 (ip), vehicle: distilled water + Tween-80 + alcohol) was 122 % of control [survivor count not shown].

From PubChem BioAssay AID330 (DTP/NCI, 2004)
